Source: paper doi:10.1101/031336
Where a chain is given by its changes, count along the chain named. Results are given in words; binding and its absence hold for the method and conditions named. Binding seen in cells or lysates may run through a third protein. Some results given as binding are weak or reduced against the parent protein; the word gives no strength. Where a sequence is shown, tags or fusion partners need not be part of it.

Protein sequences, listed by entry. Tags and fused reporters are not part of them.
UniProt P23330: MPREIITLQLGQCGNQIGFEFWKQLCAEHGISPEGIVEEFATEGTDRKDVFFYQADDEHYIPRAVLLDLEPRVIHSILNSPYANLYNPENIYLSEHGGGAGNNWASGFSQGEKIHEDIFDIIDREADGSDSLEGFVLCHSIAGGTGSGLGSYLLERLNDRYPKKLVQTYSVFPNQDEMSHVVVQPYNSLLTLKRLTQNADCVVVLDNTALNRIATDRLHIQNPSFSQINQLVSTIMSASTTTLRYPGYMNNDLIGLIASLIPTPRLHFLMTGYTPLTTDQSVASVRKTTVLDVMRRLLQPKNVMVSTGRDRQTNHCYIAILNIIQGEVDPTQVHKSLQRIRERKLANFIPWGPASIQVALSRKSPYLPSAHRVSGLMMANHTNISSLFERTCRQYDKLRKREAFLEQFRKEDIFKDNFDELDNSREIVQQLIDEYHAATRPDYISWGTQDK

Assays:
Assay in all cases: co-IP
[1] = target: T1, 2xFlag-huWdr8 wild-type (human) (UniProt Q9P2S5)
T1 sequence: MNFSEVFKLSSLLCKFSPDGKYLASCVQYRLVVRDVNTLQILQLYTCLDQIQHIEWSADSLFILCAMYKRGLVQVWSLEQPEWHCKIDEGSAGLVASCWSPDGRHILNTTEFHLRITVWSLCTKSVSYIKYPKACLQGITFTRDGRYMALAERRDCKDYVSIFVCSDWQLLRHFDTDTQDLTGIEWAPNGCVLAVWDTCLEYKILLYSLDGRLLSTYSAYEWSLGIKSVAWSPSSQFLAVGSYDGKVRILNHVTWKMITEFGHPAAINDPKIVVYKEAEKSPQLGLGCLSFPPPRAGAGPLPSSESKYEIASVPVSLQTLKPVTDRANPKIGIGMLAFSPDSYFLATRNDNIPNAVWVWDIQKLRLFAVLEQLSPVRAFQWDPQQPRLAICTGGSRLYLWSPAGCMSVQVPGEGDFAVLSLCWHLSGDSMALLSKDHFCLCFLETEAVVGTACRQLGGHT

[2] = target: T2, 2xFlag-196/197AA (human) (UniProt Q9P2S5)
T2 sequence: T1 sequence with W196A, D197A

[3] = target: T3, 2xFlag-359/360AA (human) (UniProt Q9P2S5)
T3 sequence: T1 sequence with W359A, D360A

Measured: binding

γ-tubulin (from UniProt P23330 1-451)
binds: [1] | [2] | [3]
